These results are taken from doi:10.1101/2020.01.16.909523 (bioRxiv, 2020).

The target in the test is PPE4mt (N-terminal PPE domain) (Mycobacterium tuberculosis) (UniProt P9WI43). Briefly: pull-down.

No constants are given. Whether binding was seen depends on the method and setting. In cells and extracts the contact can be indirect. Some entries that bind do so weakly or less than the wild type.

For the substance EspG3mt (from UniProt P9WJC7 1-295), the binding entry was “binds”.
